Experimental data published in US4294754A, “Ring peptide antibiotics, Permetin A and a process for producing the same” (Ajinomoto Company, Incorporated, priority 1978, dated 1981).
Part of at least one peptide drawing is inferred or uncertain, most often the ends. Starred links: 1 amine or outer side, 2 acyl side, 3 side chain; linkers in the order of their positions; H or OH if unused. Positions of bridges follow the written chain, without caps; N, C: chain ends. Non-standard residues stand in square brackets, D forms with d. Residues, ends and D or L forms follow the SMILES beside them. X1 = CCC(C)C(CC(=O)[*:1])O[*:2]; Dab = NCC[C@H](N)C(=O)O

How the values were obtained:
Assay in all cases: MIC, agar plate anti-microbial activity test
Assay type in all cases: cell-based
[1] = test system: Escherichia coli NIH JC-2; conditions: Medium A (Heart infusion medium), 30° C., 24 hours
[2] = test system: Escherichia coli 61; conditions: Medium A (Heart infusion medium), 30° C., 24 hours
[3] = test system: Escherichia coli 1236; conditions: Medium A (Heart infusion medium), 30° C., 24 hours
[4] = test system: Salmonella typhimurium AJ 3224
[5] = test system: Klebsiella preumoniae GN 69; conditions: Medium A (Heart infusion medium), 30° C., 24 hours
[6] = test system: Klebsiella preumoniae GM 118; conditions: Medium A (Heart infusion medium), 30° C., 24 hours
[7] = test system: Klebsiella preumoniae 29; conditions: Medium A (Heart infusion medium), 30° C., 24 hours
[8] = test system: Klebsiella preumoniae 48; conditions: Medium A (Heart infusion medium), 30° C., 24 hours
[9] = test system: Klebsiella preumoniae 37; conditions: Medium A (Heart infusion medium), 30° C., 24 hours
[10] = test system: Pseudomonas aeruqinosa ATCC 10145; conditions: Medium A (Heart infusion medium), 30° C., 24 hours
[11] = test system: Pseudomonas aeruqinosa IFO 3445; conditions: Medium A (Heart infusion medium), 30° C., 24 hours
[12] = test system: Pseudomonas aeruqinosa 4424; conditions: Medium A (Heart infusion medium), 30° C., 24 hours
[13] = test system: Pseudomonas aeruqinosa 4049; conditions: Medium A (Heart infusion medium), 30° C., 24 hours
[14] = test system: Serratia marcescens 32; conditions: Medium A (Heart infusion medium), 30° C., 24 hours
[15] = test system: Serratia marcescens 34; conditions: Medium A (Heart infusion medium), 30° C., 24 hours
[16] = test system: Enterobacter cloacae 33; conditions: Medium A (Heart infusion medium), 30° C., 24 hours
[17] = test system: Enterobacter cloacae 35; conditions: Medium A (Heart infusion medium), 30° C., 24 hours
[18] = test system: Proteus vulgaris GN 76/C 1; conditions: Medium A (Heart infusion medium), 30° C., 24 hours
[19] = test system: Proteus vulgaris 2; conditions: Medium A (Heart infusion medium), 30° C., 24 hours
[20] = test system: Proteus vulgaris 5; conditions: Medium A (Heart infusion medium), 30° C., 24 hours
[21] = test system: Proteus milabiles 1; conditions: Medium A (Heart infusion medium), 30° C., 24 hours
[22] = test system: Proteus milabiles 3; conditions: Medium A (Heart infusion medium), 30° C., 24 hours
[23] = test system: Proteus milabiles 4; conditions: Medium A (Heart infusion medium), 30° C., 24 hours
[24] = test system: Staphirococcus aureus 209P; conditions: Medium A (Heart infusion medium), 30° C., 24 hours
[25] = test system: Staphirococcus aureus 14; conditions: Medium A (Heart infusion medium), 30° C., 24 hours
[26] = test system: Bacillus subtilis AJ 1234; conditions: Medium A (Heart infusion medium), 30° C., 24 hours
[27] = test system: Bacillus sereus AJ 1310; conditions: Medium A (Heart infusion medium), 30° C., 24 hours
[28] = test system: Brevibacterium AJ 1511; conditions: Medium A (Heart infusion medium), 30° C., 24 hours

Compound: CCC(C)C1CC(=O)N[C@@H](CCN)C(=O)N[C@@H]([C@@H](C)CC)C(=O)N[C@@H](CCN)C(=O)N[C@H](Cc2ccccc2)C(=O)N[C@@H](CC(C)C)C(=O)N[C@@H](CCN)C(=O)N[C@H](C(C)C)C(=O)N[C@@H](CC(C)C)C(=O)N[C@@H](CO)C(=O)O1 (stereo partly drawn) [Permetin A, Nα-(3-hydroxy-4-methyl-1-oxohexyl)-L-α,γ-diaminobutyryl-L -isoleucyl-L-α,γ-diaminobutyryl-D-phenylalanyl-L-leucyl-L-.alph a.,γ-diaminobutyryl-D-valyl-L-leucyl-L-serine (9-1)-lactone] ([Dab]I[Dab][dF]L[Dab][dV]LS; linker N-C via X1)
- Minimum Inhibitory Concentration (MIC) [1]: 12,5 mcq/ml
- Minimum Inhibitory Concentration (MIC) [2]: 12,5 mcq/ml
- Minimum Inhibitory Concentration (MIC) [3]: 12,5 mcq/ml
- Minimum Inhibitory Concentration (MIC) ([4]; Medium A (Heart infusion medium), agar plate, 30° C., 24 hours): 12,5 mcq/ml
- minimum inhibitory concentrations (MIC) ([4]; comparison of Permetin A and AB-2 in the text, medium not stated): 25 mcq/ml
- Minimum Inhibitory Concentration (MIC) [5]: 25 mcq/ml
- Minimum Inhibitory Concentration (MIC) [6]: 12,5 mcq/ml
- Minimum Inhibitory Concentration (MIC) [7]: 12,5 mcq/ml
- Minimum Inhibitory Concentration (MIC) [8]: 12,5 mcq/ml
- Minimum Inhibitory Concentration (MIC) [9]: 12,5 mcq/ml
- Minimum Inhibitory Concentration (MIC) [10]: 25 mcq/ml
- Minimum Inhibitory Concentration (MIC) [11]: 12,5 mcq/ml
- Minimum Inhibitory Concentration (MIC) [12]: 25 mcq/ml
- Minimum Inhibitory Concentration (MIC) [13]: 25 mcq/ml
- Minimum Inhibitory Concentration (MIC) [14]: 12,5 mcq/ml
- Minimum Inhibitory Concentration (MIC) [15]: 12,5 mcq/ml
- Minimum Inhibitory Concentration (MIC) [16]: 12,5 mcq/ml
- Minimum Inhibitory Concentration (MIC) [17]: 12,5 mcq/ml
- Minimum Inhibitory Concentration (MIC) [18]: > 50 mcq/ml
- Minimum Inhibitory Concentration (MIC) [19]: > 50 mcq/ml
- Minimum Inhibitory Concentration (MIC) [20]: > 50 mcq/ml
- Minimum Inhibitory Concentration (MIC) [21]: 12,5 mcq/ml
- Minimum Inhibitory Concentration (MIC) [22]: > 50 mcq/ml
- Minimum Inhibitory Concentration (MIC) [23]: > 50 mcq/ml
- Minimum Inhibitory Concentration (MIC) [24]: 6,25 mcq/ml
- Minimum Inhibitory Concentration (MIC) [25]: 6,25 mcq/ml
- Minimum Inhibitory Concentration (MIC) [26]: 3,13 mcq/ml
- Minimum Inhibitory Concentration (MIC) [27]: 12,5 mcq/ml
- Minimum Inhibitory Concentration (MIC) [28]: 6,25 mcq/ml
